Results are given in words; binding and its absence hold for the method and conditions named. Binding seen in cells or lysates may run through a third protein. Some results given as binding are weak or reduced against the parent protein; the word gives no strength. Tags and fused reporters may be left off the sequences shown.
T1: mKO-PBP1a (Escherichia coli) (UniProt P02918)
T1 sequence: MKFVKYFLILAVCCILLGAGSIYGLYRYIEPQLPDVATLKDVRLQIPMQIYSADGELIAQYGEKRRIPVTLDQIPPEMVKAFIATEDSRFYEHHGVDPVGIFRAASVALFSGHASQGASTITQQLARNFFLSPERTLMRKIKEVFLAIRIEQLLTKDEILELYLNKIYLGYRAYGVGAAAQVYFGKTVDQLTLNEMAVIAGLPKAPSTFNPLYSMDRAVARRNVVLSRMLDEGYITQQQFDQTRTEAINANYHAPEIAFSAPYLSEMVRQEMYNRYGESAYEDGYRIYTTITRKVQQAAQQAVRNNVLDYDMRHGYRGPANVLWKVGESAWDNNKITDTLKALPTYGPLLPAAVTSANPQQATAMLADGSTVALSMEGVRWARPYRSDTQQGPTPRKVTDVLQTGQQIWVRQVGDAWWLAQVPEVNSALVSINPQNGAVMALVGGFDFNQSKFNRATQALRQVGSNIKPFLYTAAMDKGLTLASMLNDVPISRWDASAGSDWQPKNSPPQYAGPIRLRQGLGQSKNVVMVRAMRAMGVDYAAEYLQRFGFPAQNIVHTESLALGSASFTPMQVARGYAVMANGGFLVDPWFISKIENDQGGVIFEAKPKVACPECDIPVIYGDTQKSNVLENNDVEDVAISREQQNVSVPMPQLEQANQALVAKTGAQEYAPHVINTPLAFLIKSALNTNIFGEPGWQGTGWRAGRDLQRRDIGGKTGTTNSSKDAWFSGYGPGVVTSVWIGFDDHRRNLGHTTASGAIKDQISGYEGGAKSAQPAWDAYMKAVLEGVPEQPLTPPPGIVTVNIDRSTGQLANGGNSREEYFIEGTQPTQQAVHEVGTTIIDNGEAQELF


Assays:
[1] = target: T1, mKO-PBP1a (Escherichia coli); assay: FRET or BRET
[2] = target: mKO-FtsZ (Escherichia coli) (UniProt P0A9A6); assay: FRET or BRET

| binding [1] | binding [2] | Binder |
| --- | --- | --- |
| no binding (tested: EfA less than 1.7 %) | binds | mCh-ZapA^I83E (dimeric ZapA mutant fused to mCh) (protein, UniProt P0ADS2 1-109) MSAQPVDIQIFGRSLRVNCPPDQRDALNQAADDLNQRLQDLKERTRVTNTEQLVFIAALNISYELAQEKAKTRDYAASMEQRERMLQQTIEQALLEQGRITEKTNQNFE |
| no binding (tested: EfA less than 1.7 %) | – | mCh-ZapA (wild type ZapA fused to mCh) (protein, UniProt P0ADS2 1-109) MSAQPVDIQIFGRSLRVNCPPDQRDALNQAADDLNQRLQDLKERTRVTNTEQLVFIAALNISYELAQEKAKTRDYAASMEQRIRMLQQTIEQALLEQGRITEKTNQNFE |
| no binding (tested: EfA less than 1.7 %) | – | mCh-PBP1b (protein, UniProt P02919 1-844) MAGNDREPIGRKGKPTRPVKQKVSRRRYEDDDDYDDYDDYEDEEPMPRKGKGKGKGRKPRGKRGWLWLLLKLAIVFAVLIAIYGVYLDQKIRSRIDGKVWQLPAAVYGRMVNLEPDMTISKNEMVKLLEATQYRQVSKMTRPGEFTVQANSIEMIRRPFDFPDSKEGQVRARLTFDGDHLATIVNMENNRQFGFFRLDPRLITMISSPNGEQRLFVPRSGFPDLLVDTLLATEDRHFYEHDGISLYSIGRAVLANLTAGRTVQGASTLTQQLVKNLFLSSERSYWRKANEAYMALIMDARYSKDRILELYMNEVYLGQSGDNEIRGFPLASLYYFGRPVEELSLDQQALLVGMVKGASIYNPWRNPKLALERRNLVLRLLQQQQIIDQELYDMLSARPLGVQPRGGVISPQPAFMQLVRQELQAKLGDKVKDLSGVKIFTTFDSVAQDAAEKAAVEGIPALKKQRKLSDLETAIVVVDRFSGEVRAMVGGSEPQFAGYNRAMQARRSIGSLAKPATYLTALSQPKIYRLNTWIADAPIALRQPNGQVWSPQNDDRRYSESGRVMLVDALTRSMNVPTVNLGMALGLPAVTETWIKLGVPKDQLHPVPAMLLGALNLTPIEVAQAFQTIASGGNRAPLSALRSVIAEDGKVLYQSFPQAERAVPAQAAYLTLWTMQQVVQRGTGRQLGAKYPNLHLAGKTGTTNNNVDTWFAGIDGSTVTITWVGRDNNQPTKLYGASGAMSIYQRYLANQTPTPLNLVPPEDIADMGVDYDGNFVCSGGMRILPVWTSDPQSLCQQSEMQQQPSGNPFDQSSQPQQQPQQQPAQQEQKDSDGVAGWIKDMFGSN |

From publication doi:10.1101/749176
